Laboratory results as given in patent publication US20140058103A1, “Inhibitors of PI3K-Delta and Methods of Their Use and Manufacture” (Exelixis, Inc., priority 2010, published 2014).
Structures were worked out from names or drawings and are uncertain.

Protein sequences, listed by entry. Tags and fused reporters are not part of them.
UniProt O00329, whole entry: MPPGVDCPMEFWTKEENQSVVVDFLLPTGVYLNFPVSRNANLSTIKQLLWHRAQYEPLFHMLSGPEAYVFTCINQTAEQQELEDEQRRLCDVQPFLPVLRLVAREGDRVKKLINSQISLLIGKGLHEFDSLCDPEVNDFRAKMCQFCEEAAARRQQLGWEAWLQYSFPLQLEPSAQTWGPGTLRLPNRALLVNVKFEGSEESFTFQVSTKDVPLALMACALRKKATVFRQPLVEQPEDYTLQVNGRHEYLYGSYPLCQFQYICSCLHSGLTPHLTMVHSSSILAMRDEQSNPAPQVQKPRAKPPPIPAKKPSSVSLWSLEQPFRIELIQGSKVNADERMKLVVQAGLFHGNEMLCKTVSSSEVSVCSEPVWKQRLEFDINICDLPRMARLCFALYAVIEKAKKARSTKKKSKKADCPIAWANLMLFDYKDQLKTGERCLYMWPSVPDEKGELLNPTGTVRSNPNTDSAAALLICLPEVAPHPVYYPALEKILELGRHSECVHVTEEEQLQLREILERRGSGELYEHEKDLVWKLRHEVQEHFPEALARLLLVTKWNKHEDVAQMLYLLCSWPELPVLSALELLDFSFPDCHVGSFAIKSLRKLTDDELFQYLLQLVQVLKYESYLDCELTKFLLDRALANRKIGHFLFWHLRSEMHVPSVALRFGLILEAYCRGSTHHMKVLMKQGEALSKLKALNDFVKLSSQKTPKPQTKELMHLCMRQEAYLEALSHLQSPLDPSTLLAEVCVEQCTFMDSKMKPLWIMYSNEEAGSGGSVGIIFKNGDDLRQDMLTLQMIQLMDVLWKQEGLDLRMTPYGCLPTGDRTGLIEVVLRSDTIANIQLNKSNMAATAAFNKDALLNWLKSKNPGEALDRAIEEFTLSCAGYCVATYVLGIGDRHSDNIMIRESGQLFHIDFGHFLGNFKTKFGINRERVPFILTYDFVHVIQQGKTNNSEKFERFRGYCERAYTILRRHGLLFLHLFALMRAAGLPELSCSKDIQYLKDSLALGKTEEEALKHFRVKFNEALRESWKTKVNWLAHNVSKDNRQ
UniProt P27986, whole entry partner: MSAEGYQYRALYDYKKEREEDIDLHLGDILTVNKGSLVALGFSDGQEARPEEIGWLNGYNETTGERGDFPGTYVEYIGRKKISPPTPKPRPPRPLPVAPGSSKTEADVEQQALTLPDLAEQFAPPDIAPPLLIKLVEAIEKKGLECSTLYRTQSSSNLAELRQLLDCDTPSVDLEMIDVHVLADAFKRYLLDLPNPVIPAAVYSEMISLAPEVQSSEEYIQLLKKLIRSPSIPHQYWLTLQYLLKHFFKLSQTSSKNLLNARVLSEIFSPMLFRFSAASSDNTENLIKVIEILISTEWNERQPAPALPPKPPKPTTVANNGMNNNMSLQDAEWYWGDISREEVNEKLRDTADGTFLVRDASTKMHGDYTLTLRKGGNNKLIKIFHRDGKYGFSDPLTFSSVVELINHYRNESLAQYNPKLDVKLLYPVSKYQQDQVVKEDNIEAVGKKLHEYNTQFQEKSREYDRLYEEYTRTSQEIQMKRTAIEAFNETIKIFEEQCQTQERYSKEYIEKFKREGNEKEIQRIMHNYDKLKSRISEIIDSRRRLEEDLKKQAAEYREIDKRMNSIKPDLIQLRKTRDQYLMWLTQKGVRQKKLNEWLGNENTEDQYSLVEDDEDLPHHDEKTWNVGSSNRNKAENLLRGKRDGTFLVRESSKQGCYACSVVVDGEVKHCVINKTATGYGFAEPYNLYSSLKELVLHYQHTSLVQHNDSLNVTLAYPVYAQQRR

Biological target: PI3K delta (Homo sapiens, UniProt O00329)
Test: Luciferase-coupled chemiluminescence kinase assay (ATP consumption, KinaseGlo)
Details: read-out: PI3K Delta Activity IC50

Row | IC50 [µM] | Compound
1 | 0.5 to 1.5 | Cc1ccc(-n2ncc3c2CCN(c2ncnc4c2nc(C(=O)NCC2CC2)n4C)C3)c(C)c1
2 | < 0.05 | CCn1c(-c2cn[nH]c2)nc2c(N3CCC(n4c(=O)[nH]c5ccccc54)CC3)ncnc21
3 | < 0.05 | CN(C)c1ccc(-c2nc3c(N4CCC(n5c(=O)[nH]c6ccccc65)CC4)ncnc3n2C)cn1
4 | 0.5 to 1.5 | Cc1cccc(C)c1-n1ncc2c1CCN(c1ncnc3c1nc(C(=O)NCC1CC1)n3C)C2
5 | 0.5 to 1.5 | COc1ccc(S(=O)(=O)N2CCN(c3ncnc4c3nc(-c3cnn(C)c3)n4C)CC2)cc1
6 | < 0.05 | CCCn1cc(-c2nc3c(N4CCC(n5c(=O)[nH]c6ccccc65)CC4)ncnc3n2CC)cn1
7 | < 0.05 | Cc1c(-c2nc3c(N4CCC(n5c(=O)[nH]c6c(F)cccc65)CC4)ncnc3n2C)cnn1C
8 | 0.5 to 1.5 | Cc1ccccc1-n1ncc2c1CCN(c1ncnc3c1nc(C(=O)NCC1CC1)n3C)C2

Row | Compound | IC50 [µM]
9 | COc1cccc2c1[nH]c(=O)n2C1CCN(c2ncnc3c2nc(C(=O)NCC2CC2)n3C)CC1 | 0.05 to 0.25
10 | CN1CCN(c2cccc3c2[nH]c(=O)n3C2CCN(c3ncnc4c3nc(C(=O)NCC3CC3)n4C)CC2)CC1 | 0.05 to 0.25
11 | CC1CN(c2ncnc3c2nc(C(=O)NCC2CC2)n3C)CCC1n1c(=O)[nH]c2ccccc21 (stereo not shown) | 0.05 to 0.25
12 | Cc1cccc(-n2ncc3c2CCN(c2ncnc4c2nc(C(=O)NCC2CC2)n4C)C3)c1 | 0.5 to 1.5
13 | Cn1c(-c2cn[nH]c2)nc2c(N3CCC(n4c(=O)[nH]c5ccccc54)CC3)ncnc21 | < 0.05
